At least one structure is not confirmed: it was looked up by name or label, or the drawing left a doubt. Some results were stated once for a whole list of compounds, not compound by compound.
Tests used:
[1] = In vitro dissolution / mean dissolution time (MDT) of active agent from formulation; format: physicochemical
Procedure: The release profile of compositions suitable for methods described herein is optionally determined using dissolution techniques. In one embodiment, dissolution is performed at 37° C. in snapwells (6.5 mm diameter polycarbonate membrane with a pore size of 0.4 μm), 0.2 mL of a gel formulation described herein (e.g., a gel formulation of Example 1) is placed into snapwell and left to harden, then 0.5 mL buffer is placed into reservoir and shaken using a Labline orbit shaker at 70 rpm. Samples are taken every hour (0.1 mL withdrawn and replace with warm buffer). Samples are analyzed for active agent concentration by UV at 245 nm against an external calibration standard curve. Pluronic concentration is analyzed at 624 nm using the cobalt thiocyanate method. Relative rank-order of mean dissolution time (MDT) as a function of % P407 is determined. […] A non-linear relationship indicates release of active agent via a combination of diffusion and/or polymer gel degradation.
The MDT is inversely proportional to the release rate of an active agent from a composition described herein. Experimentally, the released active agent is optionally fitted to the Korsmeyer-Peppas equation: […]
where Q is the amount of active agent released at time t, Qα is the overall released amount of active agent, k is a release constant of the nth order, n is a dimensionless number related to the dissolution mechanism and b is the axis intercept, characterizing the initial burst release mechanism wherein n=1 characterizes an erosion controlled mechanism. The mean dissolution time (MDT) is the sum of different periods of time the drug molecules stay in the matrix before release, divided by the total number of molecules and is optionally calculated by: […]
In alternate embodiments, samples are analyzed using the method described by Li Xin-Yu paper [Acta Pharmaceutica Sinica 2008, 43(2):[…]] and Rank-order of mean dissolution time (MDT) as a function of % P407 is determined.

[2] = tested on: Cisplatin induced hearing loss; assay: Cisplatin induced ototoxicity model, intratympanic injection, hearing by ABR; format: in vivo, guinea pig; settings: thermoreversible gel composition administered 24 hours prior to cisplatin
Procedure: Intratympanic injection of a formulation of Example 1 is administered the day before cisplatin administration. The lower right quadrant of the abdomen is shaved 1 inch and swabbed with alcohol. A tiny (2-3 mm) incision is made on the abdomen and a 21 G blunt needle is used to penetrate the abdominal wall and into the intraperitoneal cavity. The needle will be connected to an infusion bag containing cisplatin for a slow infusion of 15-30 minutes in the range of 5-15 mg/kg. The incision site is closed using sterile staples. Animals will be placed on a warming pad during the infusion and while recovering. In addition, animals receive twice daily IP injection of saline solution for 3 days to prevent nephrotoxicity.
The hearing of the animal is tested by recording the brainstem activity in response to a known auditory stimulus. (ABR: Auditory Brainstem Response) at various time points. This measurement is performed under general anesthesia. During the procedure the animal is placed on a heating pad (40° C.) in a sound proof booth and an earphone is fitted loosely into one ear at a time. Three subcutaneous needle electrodes are used to measure the brainstem activity. […] The recording then takes place, where the audio stimulus is applied at different frequencies and hearing thresholds, and the brainstem activity recorded.

[3] = tested on: noise induced hearing loss; assay: Acoustic trauma / noise induced hearing loss model, intratympanic injection, hearing by ABR; format: in vivo, guinea pig
Procedure: The hearing of the animal is tested by recording the brainstem activity in response to a known auditory stimulus. (ABR: Auditory Brainstem Response) at various time points. This measurement is performed under general anesthesia. During the procedure the animal is placed on a heating pad (40° C.) in a sound proof booth and an earphone is fitted loosely into one ear at a time. Three subcutaneous needle electrodes are used to measure the brainstem activity. One is placed behind the ear with the earphone, one on the vertex of the skull and one in the hindleg. The recording then takes place, where the audio stimulus is applied at different frequencies and hearing thresholds, and the brainstem activity recorded.
Following the procedure described in Example 9, a dexamethasone formulation is administered to guinea pigs prior to exposure to acoustic trauma. Hearing is evaluated as described in Example 8 above.
Following the procedure described in Example 9, a SP600125 formulation is administered to guinea pigs prior to exposure to acoustic trauma. Hearing is evaluated as described in Example 9 above.

[4] = thermoreversible gel composition administered prior to acoustic trauma

SMILES	MDT (mean dissolution time) ([1]; 17% Poloxamer 407 formulation) [h]	MDT (mean dissolution time) ([1]; micronized suspension in water) [h]	protection against Cisplatin induced hearing loss [2]	protection against acute acoustic trauma compared with DSP solution [3, 4]	protective effect at increasing levels of acoustic trauma [3, 4]	protective effect in noise induced hearing loss ([3]; thermoreversible gel composition administered prior to exposure to noise)	protection against acoustic trauma / prevention of hearing loss ([3]; thermoreversible gel formulation, prophylactic intratympanic administration)
C[C@H]1C[C@@H]2[C@H]([C@@H](O)C[C@@]3(C)[C@H]2CC[C@]3(O)C(=O)CO)[C@@]2(C)C=CC(=O)C=C12 [MP, methylprednisolone]	40 to 71	–	–	–	–	–	–
CC(=O)OCC(=O)[C@@]1(O)[C@H](C)C[C@H]2[C@@H]3CCC4=CC(=O)C=C[C@]4(C)[C@@]3(F)[C@@H](O)C[C@@]21C [DA, Dexamethasone acetate]	40 to 71	–	–	–	–	–	–
C[C@@H]1C[C@H]2[C@@H]3CCC4=CC(=O)C=C[C@]4(C)[C@@]3(F)[C@@H](O)C[C@]2(C)[C@@]1(O)C(=O)CO [DEX, dexamethasone]	40 to 71	44	protective against Cisplatin induced hearing loss	superior to DSP solution	protective effect	protective effect	protective effect
